Experimental data: PMC10061982

By UniProt entry, the sequences of proteins in these tests, tags left out. Where a name states a change or a piece, a line headed by the entry shows the natural chain unless it says otherwise.
UniProt P13667: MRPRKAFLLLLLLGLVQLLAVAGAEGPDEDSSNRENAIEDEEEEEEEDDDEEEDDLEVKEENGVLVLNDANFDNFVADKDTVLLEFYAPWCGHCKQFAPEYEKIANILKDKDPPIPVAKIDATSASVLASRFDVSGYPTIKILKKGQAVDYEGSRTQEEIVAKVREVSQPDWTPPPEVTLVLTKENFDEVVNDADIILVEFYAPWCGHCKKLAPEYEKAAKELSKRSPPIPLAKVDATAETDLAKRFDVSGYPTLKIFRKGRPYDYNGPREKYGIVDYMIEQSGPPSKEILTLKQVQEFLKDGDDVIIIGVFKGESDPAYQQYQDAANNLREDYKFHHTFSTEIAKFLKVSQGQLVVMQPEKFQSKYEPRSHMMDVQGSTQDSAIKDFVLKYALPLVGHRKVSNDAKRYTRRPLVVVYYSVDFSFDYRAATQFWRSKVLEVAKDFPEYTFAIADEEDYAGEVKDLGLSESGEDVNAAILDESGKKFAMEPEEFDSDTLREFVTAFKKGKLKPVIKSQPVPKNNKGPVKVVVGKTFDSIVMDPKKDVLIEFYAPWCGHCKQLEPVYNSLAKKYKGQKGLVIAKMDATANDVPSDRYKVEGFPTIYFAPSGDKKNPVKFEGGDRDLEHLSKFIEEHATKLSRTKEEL
UniProt P15692: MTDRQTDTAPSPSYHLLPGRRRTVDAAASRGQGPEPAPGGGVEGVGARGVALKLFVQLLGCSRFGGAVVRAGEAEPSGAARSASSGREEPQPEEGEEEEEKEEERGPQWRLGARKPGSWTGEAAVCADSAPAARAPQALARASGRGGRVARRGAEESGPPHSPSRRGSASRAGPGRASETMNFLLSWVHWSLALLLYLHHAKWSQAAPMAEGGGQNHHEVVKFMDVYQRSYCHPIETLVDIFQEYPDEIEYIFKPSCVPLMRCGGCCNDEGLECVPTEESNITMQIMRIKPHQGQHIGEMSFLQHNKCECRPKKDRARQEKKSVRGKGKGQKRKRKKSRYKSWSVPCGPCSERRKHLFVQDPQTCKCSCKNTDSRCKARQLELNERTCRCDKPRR

Target: 3Flag-tagged mutant PDIA4 (CXXC to CXXA at the three active sites) (human) (UniProt P13667)
Assay: affinity purification with mass spectrometry; anti-Flag immunoprecipitation from U87 cells stably overexpressing Flag-mPDIA4; cells rinsed with PBS with 20 mM NEM, NP40 lysis buffer with 0.5 mM PMSF; LC-ESI-MS/MS; hits of normal rabbit IgG subtracted

binding: binds
Substance: human VEGFA (endogenous, U87 cells) (from UniProt P15692 1-395) (ligand)

These are yes or no findings as the source states them, for the method shown. Binding seen in cells or lysates may run through a third protein. Here binding means that the protein was enriched with, or labelled near, the bait; the list need not be complete.
